Data published in patent US9260459B2, “4,6-hexadecadiene-2,4-dicarboxylic acid derivative” (Kyowa Hakko Kirin Co., Ltd., priority 2012, dated 2016).
Some results were stated once for a whole list of compounds, not compound by compound. For at least one compound, name, drawing or mass did not settle the structure.

System: human cervical cancer cell line HeLa
Test: Cell growth inhibition test against human cervical cancer cells
Assay type: cell-based
Conditions: compound concentration 200 μmol/L, 72 hours culture
Protocol: As a cervical cancer cell line, a human cervical cancer cell line HeLa (DS Pharma Biomedical, Cat. No. EC93021013-F0) was used.
The cell line was cultured under conditions of 37° C. and 5% carbon dioxide.
The difference in absorbance in the well in which the cells were not treated with the compound was taken as 100%, and the difference in absorbance in the well in which the cells were not inoculated was taken as 0%, and the cell growth ratio (%) was calculated based on the difference in absorbance in the compound-treated group.

Question: Which “inhibited the cell growth” value does the source give for `CCC(C)CC(C)CC(C)CC(C)/C=C(C)/C=C(/CC(C)C(=O)O[C@@H]1COC(=O)C1)C(=O)OC` (stereo partly drawn) [Compound 32, 1-Methyl 5-{(S)-5-oxotetrahydrofuran-3-yl}(Z)-4-methyl-2-{(E)-2,4,6,8,10-pentamethyldodec-2-enylidene}pentanedioate] here?
Answer: ≥ 90%
